{
  "source": "paper PMC7082817",
  "target": "EGFP-RRSPPa H485A (Photorhabdus asymbiotica ATCC43949)",
  "assay": "affinity purification with mass spectrometry; HeLa cells transfected 16 h with pEGFP or pEGFP-RRSPPa H485A, lysed in RIPA buffer; lysate on anti-GFP magnetic beads 2 h at room temperature, washed with PBST; bands of a silver-stained SDS-PAGE gel analysed by nano LC-MS/MS",
  "note": "These are yes or no findings as the source states them, for the method shown. In cells and extracts the contact can be indirect. A yes stands for co-enrichment or nearness to the bait. Other partners may have been found.",
  "data": [
    {"binder": "vacuolar protein sorting-associated protein 51 (protein, UniProt Q9UID3 1-782) MAAAAAAGPSPGSGPGDSPEGPEGEAPERRRKAHGMLKLYYGLSEGEAAGRPAGPDPLDPTDLNGAHFDPEVYLDKLRRECPLAQLMDSETDMVRQIRALDSDMQTLVYENYNKFISATDTIRKMKNDFRKMEDEMDRLATNMAVITDFSARISATLQDRHERITKLAGVHALLRKLQFLFELPSRLTKCVELGAYGQAVRYQGRAQAVLQQYQHLPSFRAIQDDCQVITARLAQQLRQRFREGGSGAPEQAECVELLLALGEPAEELCEEFLAHARGRLEKELRNLEAELGPSPPAPDVLEFTDHGGSGFVGGLCQVAAAYQELFAAQGPAGAEKLAAFARQLGSRYFALVERRLAQEQGGGDNSLLVRALDRFHRRLRAPGALLAAAGLADAATEIVERVARERLGHHLQGLRAAFLGCLTDVRQALAAPRVAGKEGPGLAELLANVASSILSHIKASLAAVHLFTAKEVSFSNKPYFRGEFCSQGVREGLIVGFVHSMCQTAQSFCDSPGEKGGATPPALLLLLSRLCLDYETATISYILTLTDEQFLVQDQFPVTPVSTLCAEARETARRLLTHYVKVQGLVISQMLRKSVETRDWLSTLEPRNVRAVMKRVVEDTTAIDVQVGLLYEEGVRKAQSSDSSKRTFSVYSSSRQQGRYAPSYTPSAPMDTNLLSNIQKLFSERIDVFSPVEFNKVSVLTGIIKISLKTLLECVRLRTFGRFGLQQVQVDCHFLQLYLWRFVADEELVHLLLDEVVASAALRCPDPVPMEPSVVEVICERG", "values": [
      {"measurement": "binding", "result": "binds"}
    ]}
  ]
}
